According to US20260174674A1, “INCOMPLETE AUTOPHAGY INDUCTION FOR THE TREATMENT OF CANCER” (Northwestern University, priority 2022, published 2026):
Where a name gives a salt, the structure may show the parent alone.

Tested on: BT474-Br cells
Assay: Reverse phase protein array (RPPA)
Type: cell-based
Conditions: 10 μM

CN1CCCC(CC2c3ccccc3Sc3ccccc32)C1 (centres unmarked) [metixene hydrochloride]
number of proteins with significant alteration in expression or phosphorylation (p<0.001) (12 hours): 52
number of proteins with significant alteration in expression or phosphorylation (p<0.001) (24 hours): 26
